Measured values from PubChem BioAssay AID2685 (National Center for Advancing Translational Sciences (NCATS), 2010).
Some of the results follow. Further columns of the screen follow, without active or inactive calls. The list favours compounds with an active or inconclusive main result. Potencies come from curve fits of mixed quality, noted in brackets.

Test: qHTS Assay for Lipid Storage Modulators in Drosophila S3 Cells;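 on cell number change: cells counted by Cell Tracker Red CMTPX staining in the red channel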
Conditions: BODIPY lipid droplet fluorescence, 18-24 h; for cell number change: measured here: cell count max response, cells fed with added oleic acid
In short: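 Drosophila S3 cells got compounds at several concentrations plus oleic acid (400 uM solution). Laser-scanning cytometry with 488 nm excitation read lipid droplets at 500-530 nm and cells at 575-640 nm. Percent activity was relative to 20 uM Triacsin C.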

[1] = measured here: lipid fluorescence (Fed channel) AC50, cells fed with added oleic acid
[2] = measured here: cell number channel AC50, cells fed with added oleic acid

Compound | cell number change [%] | AC50 [1] | AC50 [2]
CN(C)CCN1CC(C(=O)O)CC1=O (configuration not stated) | -0.522 |  | 
CCC(C)n1ncn(-c2ccc(N3CCN(c4ccc(OC)cc4)CC3)cc2)c1=O (configuration not stated) | -6.59 |  | 
Cc1cccc(NC(=O)C2CCN(S(=O)(=O)c3ccc4c(c3)NC(=O)CO4)CC2)c1 | -5.11 | 0.146 µM [rising, full curve, poor fit] | 
O=C(COC(=O)c1oc2ccccc2c1CSc1ccc(Cl)cc1)NC1CCCC1 | 3.6 | 11.6 µM [rising, partial curve] | 
CCC(=O)Nc1ccccc1C(=O)C(=O)Nc1ccccc1 | -3.17 |  | 4.61 µM [falling, single point]
COc1ccc(Cl)cc1NC(=O)CN(C)C(C)C(=O)NCC1CCCCC1 (configuration not stated) | 5.06 |  | 
CN1C(=O)Cc2cc(S(=O)(=O)N3CCN(c4cccc(C(F)(F)F)c4)CC3)ccc21 |  | 29.1 µM [falling, single point] | 
COc1ccccc1CN1C(=O)CCC1(C)C(=O)NCc1cccnc1 (configuration not stated) |  | 8.2 µM [rising, partial curve, poor fit] | 
COc1ccc(/C=C(\NC(=O)c2ccc(Cl)cc2)C(=O)NCCCn2ccnc2)cc1OC | 33.3 |  | 1.84 µM [rising, partial curve]
Cc1[nH]c2ccccc2c1C(=O)CCl | -51.7 | 0.0461 µM [falling, full curve, poor fit] | 14.6 µM [falling, single point]
COc1ccc(N2CCN(C(=O)CC3NC4CCCCC4NC3=O)CC2)cc1 (configuration not stated) |  |  | 4.11 µM [falling, partial curve]
COc1ccc([N+](=O)[O-])cc1NC(=O)Nc1cccc(Cl)c1 | -29.8 | 29.1 µM [falling, single point] | 
CCOC(=O)N1CCN(Cc2ccccc2Cl)CC1 | 1.99 | 1.64 µM [falling, partial curve] | 2.06 µM [falling, partial curve, poor fit]
COc1ccc(S(=O)(=O)N(CC(=O)NCC2CCCO2)Cc2ccccc2)cc1 (configuration not stated) | -10.5 | 0.447 µM [falling, single point] | 
CN(c1ccc(C(=O)NCc2ccco2)cc1)S(C)(=O)=O |  |  | 0.58 µM [falling, partial curve, poor fit]
O=C(CSc1ccc2nnc(-c3ccccn3)n2n1)Nc1ccc2c(c1)OCCO2 |  | 0.103 µM [rising, full curve, poor fit] | 0.092 µM [rising, full curve, poor fit]
O=C(c1cc2nc(-c3ccco3)cc(C(F)(F)F)n2n1)N1CCN(c2ccccn2)CC1 |  | 6.51 µM [rising, single point] | 
Cc1nn(Cc2cccc(C(=O)O)c2)c(C)c1[N+](=O)[O-] | 15.6 | 0.146 µM [rising, full curve] | 0.184 µM [rising, full curve, poor fit]
O=C(COc1cc2oc(=O)c3c(c2cc1Cl)CCC3)Nc1cccnc1 | 68.3 |  | 29.1 µM [rising, single point]
COc1ccc(CN(C)C(=O)Cc2ccc(S(=O)(=O)N3CCOCC3)s2)cc1OC | -4.92 | 0.00517 µM [falling, full curve, poor fit] | 
CCc1ccc(OC)c(S(=O)(=O)Nc2ccc(Cc3ccncc3)cc2)c1 | 21.8 |  | 

Compound | cell number change [%] | AC50 [1] | AC50 [2]
CCN(CC1COc2ccccc2O1)C(=S)NC1CC2CCC1C2 (configuration not stated) | 24.6 | 1.58 µM [rising, full curve] | 
CCc1ccc(CN(C)C(=O)c2ccc3c(=O)n4c(nc3c2)CCC4)cc1 | -35.5 | 2.06 µM [falling, full curve] | 1.84 µM [falling, full curve]
Cc1ccc(SCCN2CCC(O)CCC2=O)cc1 (configuration not stated) | 12 | 3.66 µM [rising, full curve] | 
O=C(COC(=O)c1ccc(F)c(S(=O)(=O)N2CCOCC2)c1)c1ccc(Cl)cc1 | -29.4 | 1.16 µM [falling, full curve] | 
O=C(Cc1cn2ccsc2n1)Nc1nc2c(s1)CCCC2 | -8.33 |  | 
COC(=O)c1ccc(COc2cccc(C)c2C)cc1 | 8.67 | 0.116 µM [rising, full curve] | 0.259 µM [rising, full curve, poor fit]
O=C(Nc1ccc(C(F)(F)F)cc1)C1CCN(c2cnccn2)CC1 | 7.95 | 0.00517 µM [rising, full curve, poor fit] | 
O=C(CCc1ccccc1)NC1CCCc2ccccc21 (configuration not stated) | 14.9 | 6.51 µM [rising, partial curve, poor fit] | 
Cc1cc(NC(=O)CSc2nccn2-c2ccc(F)cc2)no1 | 42.2 |  | 3.66 µM [rising, partial curve]
O=C(Nc1ccc2c(c1)C(=O)OC2)Nc1cccc2ccccc12 |  | 29.1 µM [falling, single point] | 
COc1cc(CN2CCCN(C)CC2)c([N+](=O)[O-])cc1OC | 13.7 |  | 
COc1cccc(CNc2ccc(S(=O)(=O)Nc3nccs3)cc2)c1O | -22 |  | 0.00461 µM [falling, full curve, poor fit]
CCCCn1c(N)c(N(CCC(C)C)C(=O)C2CC(=O)N(Cc3ccc(C)cc3)C2)c(=O)[nH]c1=O (configuration not stated) | -20.4 | 2.59 µM [falling, full curve, poor fit] | 
Cc1ccc(N/C(N)=N/c2nc(C)cc(N3CCCCC3)n2)c(C)c1 | -70.6 | 7.31 µM [falling, partial curve] | 4.11 µM [falling, partial curve]
COc1ccc(-c2cc(C(=O)Nc3c(C)n(C)n(-c4ccccc4)c3=O)c3ccccc3n2)c(OC)c1 | 12.5 |  | 6.51 µM [rising, single point]
CCCc1cc(NCC2CCCO2)n2c(nc3ccccc32)c1C#N (configuration not stated) | 5.69 | 18.4 µM [rising, partial curve, poor fit] | 
COc1ccccc1/C=C/C(=O)OCC(=O)N1CCc2ccccc21 | 2.34 | 11.6 µM [rising, partial curve] | 
O=C(NC1CC2CCC1C2)C1COc2ccccc2O1 (configuration not stated) |  |  | 6.51 µM [rising, single point]
O=C(Cc1ccc(Br)cc1)Nc1nc2ccccc2[nH]1 | 8.95 |  | 0.82 µM [rising, full curve, poor fit]
COc1ccc(-c2csc(Nc3ccc(C)cn3)n2)cc1OC | 12.2 | 4.11 µM [falling, single point] | 
FC(F)C(F)(F)C1=CC(c2cccs2)=NCCN1 | 8.91 |  | 

Compound | cell number change [%] | AC50 [1] | AC50 [2]
OC1(c2ccccc2)c2ccccc2-c2ncccc21 (configuration not stated) | 40.4 | 20.6 µM [rising, single point] | 
Cc1ccccc1[C@@H]1C(C#N)=C(N)S[C@H]1C(=O)c1ccccc1 | 85.7 | 4.11 µM [rising, partial curve] | 1.46 µM [rising, full curve]
O=C(C1CCN(C2CCN(Cc3ccsc3)CC2)CC1)N1CCOCC1 | 38.4 |  | 
Cc1cccc(-n2c(Cc3ccccc3)nnc2SCc2ccc([N+](=O)[O-])cc2)c1 | -23 |  | 
OC(CN1CCCCCC1)CN(c1ccccc1)c1ccccc1 (configuration not stated) | -26.4 |  | 
CC1CCC(Nc2nnnn2-c2ccccc2)CC1 (configuration not stated) | -25.3 |  | 
O=C(COc1ccc(C(=S)N2CCCC2)cc1)Nc1ccccc1C(F)(F)F | -4.96 | 7.31 µM [falling, partial curve, poor fit] | 
CCOc1ccc(/C=C2\SC(=S)N(NS(=O)(=O)c3ccc(C)cc3)C2=O)cc1OC | 13.6 |  | 
COc1ccc(S(=O)(=O)N2CCC(C(=O)NCc3ccco3)CC2)cc1C | 3.95 | 35.5 µM [falling, single point] | 0.731 µM [rising, single point]
COc1ccc(OC)c(-c2csc(NC(=O)CN3C(=O)C4CCCCC4C3=O)n2)c1 (configuration not stated) | 0.643 | 29.1 µM [falling, single point] | 
Clc1ccc(CSc2cc3c(nn2)-c2ccccc2CC3)cc1 | -14.4 | 2.31 µM [falling, partial curve, poor fit] | 
Cc1ccc(CN2CCC(n3nccc3NC(=O)C3CCOC3)CC2)cc1 (configuration not stated) | 18.3 |  | 
Cc1cc(-c2nsc(=O)o2)c(S(C)(=O)=O)s1 | -2.21 | 14.6 µM [falling, partial curve, poor fit] | 1.3 µM [falling, partial curve]
Cc1c(C(=O)N2CCCC2)sc(NC(=O)c2cccs2)c1C#N | -12.4 |  | 6.51 µM [falling, single point]
COc1cc(NC(=O)c2cc([N+](=O)[O-])ccc2NC(=O)CNCc2ccccn2)cc(OC)c1 | 8.82 |  | 
COc1ccc2[nH]c(C)c(CCNC(=S)Nc3ccccc3C)c2c1 | 5.54 | 13 µM [rising, partial curve, poor fit] | 4.11 µM [rising, single point]
CCCCC1(CC)C(=O)NC(=O)NC1=Nc1ccc(OC)cc1 (configuration not stated) | 15.6 | 0.731 µM [rising, partial curve, poor fit] | 
CCCn1c(CCc2ccccc2)nnc1SCC(=O)N1CCCC1 |  | 7.31 µM [rising, partial curve] | 2.91 µM [rising, single point]
Cc1ccc(NC(=O)Cc2ccsc2)cc1Cl |  | 23.1 µM [rising, partial curve] | 
N#CCCn1c(SCC(=O)NCc2ccco2)nc2ccccc21 |  | 2.59 µM [rising, partial curve, poor fit] | 2.59 µM [rising, partial curve]

Exported tab-delimited: entries from further up
Compound	cell number change [%]	AC50 [1]	AC50 [2]
Clc1ccc(CSc2cc3c(nn2)-c2ccccc2CC3)cc1	-14.4	2.31 µM [falling, partial curve, poor fit]	
Cc1ccc(CN2CCC(n3nccc3NC(=O)C3CCOC3)CC2)cc1 (configuration not stated)	18.3		
Cc1cc(-c2nsc(=O)o2)c(S(C)(=O)=O)s1	-2.21	14.6 µM [falling, partial curve, poor fit]	1.3 µM [falling, partial curve]
Cc1c(C(=O)N2CCCC2)sc(NC(=O)c2cccs2)c1C#N	-12.4		6.51 µM [falling, single point]
COc1cc(NC(=O)c2cc([N+](=O)[O-])ccc2NC(=O)CNCc2ccccn2)cc(OC)c1	8.82		
